In paper PMC3604124 one finds binding data, which are given here for 2 substances.

By UniProt entry, the sequences of proteins in these tests, tags left out. Where a name states a change or a piece, a line headed by the entry shows the natural chain unless it says otherwise.
UniProt P04406: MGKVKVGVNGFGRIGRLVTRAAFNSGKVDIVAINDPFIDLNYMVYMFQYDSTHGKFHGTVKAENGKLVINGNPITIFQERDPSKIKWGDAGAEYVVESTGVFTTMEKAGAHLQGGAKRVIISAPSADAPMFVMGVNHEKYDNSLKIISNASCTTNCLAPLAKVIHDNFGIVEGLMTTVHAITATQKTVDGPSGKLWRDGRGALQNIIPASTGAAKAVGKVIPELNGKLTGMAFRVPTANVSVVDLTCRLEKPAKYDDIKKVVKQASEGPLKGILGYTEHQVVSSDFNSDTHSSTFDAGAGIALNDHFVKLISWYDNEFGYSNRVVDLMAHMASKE

No constants are given. Whether binding was seen depends on the method and setting. For part of these data: In cells and extracts the contact can be indirect. Some entries that bind do so weakly or less than the wild type. For part of these data: Tags and fused reporters may be left off the sequences shown.

In test [1] the target is T1, human dominant-negative Mst1 (K59R), yeast two-hybrid bait (human) (UniProt Q13043).
T1 sequence: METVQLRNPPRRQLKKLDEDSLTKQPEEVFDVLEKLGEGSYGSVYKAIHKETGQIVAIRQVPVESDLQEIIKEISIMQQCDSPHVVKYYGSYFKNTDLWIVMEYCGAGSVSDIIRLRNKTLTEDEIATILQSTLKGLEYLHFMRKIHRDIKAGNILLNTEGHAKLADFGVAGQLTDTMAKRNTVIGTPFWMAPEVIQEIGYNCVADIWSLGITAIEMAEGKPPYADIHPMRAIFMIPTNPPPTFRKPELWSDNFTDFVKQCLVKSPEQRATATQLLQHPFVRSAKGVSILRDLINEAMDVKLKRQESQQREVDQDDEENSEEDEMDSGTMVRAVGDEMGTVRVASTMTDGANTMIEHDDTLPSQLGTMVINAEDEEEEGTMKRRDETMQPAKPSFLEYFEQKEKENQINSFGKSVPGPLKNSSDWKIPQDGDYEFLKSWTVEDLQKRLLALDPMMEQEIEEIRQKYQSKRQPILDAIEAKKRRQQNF
The test can be described thus: two-hybrid; … GAL4 yeast 2-hybrid system 3 in AH109 yeast; human DN-Mst1 (K59R) as bait, human heart cDNA library as prey; selection medium and beta-galactosidase filter assays.

A further test concerns the target Myc-tagged Mst1 (UniProt Q13043). As to the kind of experiment: co-IP; HEK293T cells co-transfected with tagged Mst1 and GAPDH constructs; lysis in 1% Nonidet P-40, 150 mmol/L NaCl, 50 mmol/L Tris pH 8, 100 umol/L EDTA; precipitation with anti-FLAG or anti-Myc antibody, blots with anti-Myc and anti-FLAG; in one panel cells treated with etoposide or TNF for 6 hrs (interaction increased).

Test [2] addresses T2, Myc-Mst1 N-terminal kinase domain (deletion mutant in pCS26MT, 6x Myc tag) (UniProt Q13043).
T2 sequence: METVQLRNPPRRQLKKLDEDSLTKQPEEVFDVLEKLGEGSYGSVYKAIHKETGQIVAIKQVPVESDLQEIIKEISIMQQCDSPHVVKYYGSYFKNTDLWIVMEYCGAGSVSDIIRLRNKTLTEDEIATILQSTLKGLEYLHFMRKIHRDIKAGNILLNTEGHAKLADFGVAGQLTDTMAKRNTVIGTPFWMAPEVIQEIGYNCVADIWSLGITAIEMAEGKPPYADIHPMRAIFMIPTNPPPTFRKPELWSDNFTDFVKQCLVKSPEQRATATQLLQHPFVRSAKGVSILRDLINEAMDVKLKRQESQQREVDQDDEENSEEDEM
The description is as above.

As for “C-terminal domain (aa 164-335) of GAPDH, two-hybrid library clone (from UniProt P04406 164-335) (domain or fragment)”, the binding entry in test [1] was “binds”.
Consider “FLAG-tagged GAPDH (from UniProt P04406 1-335) (enzyme)”, for which the binding result (in the test with Myc-tagged Mst1; in test [2]) was “binds” throughout.
